The experiment deals with T1, endogenous chicken STING (chicken (endogenous in DF-1)) (UniProt E1C7U0).
T1 sequence: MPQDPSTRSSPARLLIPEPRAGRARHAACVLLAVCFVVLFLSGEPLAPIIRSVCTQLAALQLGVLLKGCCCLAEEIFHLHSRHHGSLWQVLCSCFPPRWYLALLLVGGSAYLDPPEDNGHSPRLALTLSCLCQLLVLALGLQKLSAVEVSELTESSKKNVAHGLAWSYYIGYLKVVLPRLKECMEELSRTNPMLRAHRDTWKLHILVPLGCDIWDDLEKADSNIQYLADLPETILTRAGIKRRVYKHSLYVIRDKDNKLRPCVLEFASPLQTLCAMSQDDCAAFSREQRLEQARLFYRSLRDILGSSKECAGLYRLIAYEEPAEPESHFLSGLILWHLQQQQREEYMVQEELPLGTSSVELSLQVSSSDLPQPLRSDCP
In words: affinity purification with mass spectrometry; endogenous Co-IP of chSTING followed by LC-MS/MS; no methods given.

These are yes or no findings as the source states them, for the method shown. In cells and extracts the contact can be indirect. A yes stands for co-enrichment or nearness to the bait. Other partners may have been found.

Consider endogenous chicken DDX3X, for which the binding result was “binds”.

The values above are taken from PMC6478769.
